Patent US11185522B2, “Cilastatin for use in the treatment of sepsis” (FUNDACIÓN PARA LA INVESTIGACIÓN BIOMÉDICA DEL HOSPITAL …, priority 2016, dated 2021)

Tested on: CLP-induced sepsis rats
Settings: mean±s.e.m.
Procedure: Sepsis was developed by cecal ligation puncture model (CLP) as described in several papers (Li G et al, Clin Exp Pharmacol Physiol. 2014; 41(7):459-68, Seija M et al, Shock. 2012; 38(4):403-10). Animals were anesthetized with ketamine (Ketolar 50 mg/ml) 90 mg/kg intraperitoneal (ip) and diazepam (Valium 10 mg/2 mL) 5 mg/kg ip. Under sterile conditions a 3-cm midline laparotomy was performed to allow exposure of the cecum, and a 4-0 silk ligature was placed 0.75 cm from the cecal tip. It was punctured once with a 14-gauge needle. A second ligature was placed 1.5 cm proximal to the first one and distal to the ileocecal valve to avoid intestinal obstruction. Three punctures were made in the cecum between the two ligatures with a 16-gauge needle. The cecum was gently squeezed until a 1-mm column of fecal material was exteriorized. The bowel was then returned to the abdomen and the incision was closed in layers. A sham operation (laparotomy and cecal exposure without any other manipulation) was performed as control. At the end of the operation, all rats were resuscitated with normal saline (50 ml/kg body weight) subcutaneously in a single dose and analgesic treatment with buprenorphine (buprex 0.3 mg/ml) 0.1 mg/kg every 12 hours immediately after surgery and until the day of killing.
Serum creatinine, blood urea nitrogen levels (BUN), proteins and other parameters were measured using the Dimension RxL autoanalyzer (Dade-Behring, Siemens, Eschborn, Germany). The glomerular filtration rate was calculated using the creatinine clearance rate.
The animals were randomly allocated into four groups (n=10 in each group): • i. sham-operated group, • ii. CLP group, • iii. sham-operated group+cilastatin, and • iv. CLP group+cilastatin.
In the treatment groups, the rats were treated with cilastatin 150 mg/kg ip immediately and at 24 h after induction of sepsis or the sham-operation. Cilastatin was substituted by vehicle (0.5 mL/100 g) in the non-treatment groups. […] All animals were then placed in the metabolic cages for 24-h urine collection.
Forty-eight (48) hours after the sepsis-induction/sham-operation, all rats were anesthetized with ketamine (10 mg/kg) and diazepam (4 mg/kg) and killed. Blood samples were collected by insertion of a cannula into the abdominal aorta, and serum was isolated by centrifugation in ACUETTE® Z Serum Sep Clot Activator tubes (Greiner bio-one), at 2000 rpm for 15 h at 4° C., and then stored at −80° C. until use. The kidneys were perfused with cold saline and quickly removed. Kidney samples were snap-frozen in liquid nitrogen and kept at −80° C. or fixed in 4% paraformaldehyde (24 h) and paraffin-embedded for the different studies.

[1] = SHAM+cil group, 48 hours after sham operation, cilastatin 150 mg/kg ip immediately and at 24 h

## CC1(C)C[C@@H]1C(=O)N/C(=C\CCCCSC[C@H](N)C(=O)O)C(=O)O [cilastatin, (Z)-7-[(2R)-2-Amino-3-hydroxy-3-oxopropyl]sulfanyl-2-{[(1S)-2,2-dimethylcyclopropanecarbonyl]amino}hept-2-enoic acid]
SHAM+cil group (second value, group not labelled), 48 hours, cilastatin 150 mg/kg ip
  Proteinuria: 1983±226
[1]
  Blood urea nitrogen: 81±4
  Serum creatinine: 0.46±0.01
SHAM+cil group, 48 hours, calculated using the creatinine clearance rate, cilastatin 150 mg/kg ip
  Glomerular filtration rate: 0.38±0.06
